The densities may have been worked out from excess volumes.
Assay: xn = mol fraction of the nth substance listed
Conditions: 101.3 kPa, x2 = 0.6576

O=C([O-])C(F)(F)F.[Na+] + CCCCNC(N)=O
Conditions | mass density [kg/m3]
303.3 K | 1213.4
306.4 K | 1210.4
311.5 K | 1205.6
314.3 K | 1203.1
319.4 K | 1198.7
322.5 K | 1196.2

Reference: a compilation of properties of binary mixtures (doi:10.1016/0040-6031(92)80207-d)
